For three substances, binding results are on record in publication doi:10.1101/2025.11.17.688470.

The chains behind the UniProt entries cited, without tags or fusion partners.
UniProt Q07955: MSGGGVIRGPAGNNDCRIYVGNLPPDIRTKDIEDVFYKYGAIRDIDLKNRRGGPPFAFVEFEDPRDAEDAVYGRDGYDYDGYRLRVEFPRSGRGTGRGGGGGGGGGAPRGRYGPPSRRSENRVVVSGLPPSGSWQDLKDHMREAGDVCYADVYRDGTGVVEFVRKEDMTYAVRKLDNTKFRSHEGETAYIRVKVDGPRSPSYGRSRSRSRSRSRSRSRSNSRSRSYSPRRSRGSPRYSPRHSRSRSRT
UniProt P78362: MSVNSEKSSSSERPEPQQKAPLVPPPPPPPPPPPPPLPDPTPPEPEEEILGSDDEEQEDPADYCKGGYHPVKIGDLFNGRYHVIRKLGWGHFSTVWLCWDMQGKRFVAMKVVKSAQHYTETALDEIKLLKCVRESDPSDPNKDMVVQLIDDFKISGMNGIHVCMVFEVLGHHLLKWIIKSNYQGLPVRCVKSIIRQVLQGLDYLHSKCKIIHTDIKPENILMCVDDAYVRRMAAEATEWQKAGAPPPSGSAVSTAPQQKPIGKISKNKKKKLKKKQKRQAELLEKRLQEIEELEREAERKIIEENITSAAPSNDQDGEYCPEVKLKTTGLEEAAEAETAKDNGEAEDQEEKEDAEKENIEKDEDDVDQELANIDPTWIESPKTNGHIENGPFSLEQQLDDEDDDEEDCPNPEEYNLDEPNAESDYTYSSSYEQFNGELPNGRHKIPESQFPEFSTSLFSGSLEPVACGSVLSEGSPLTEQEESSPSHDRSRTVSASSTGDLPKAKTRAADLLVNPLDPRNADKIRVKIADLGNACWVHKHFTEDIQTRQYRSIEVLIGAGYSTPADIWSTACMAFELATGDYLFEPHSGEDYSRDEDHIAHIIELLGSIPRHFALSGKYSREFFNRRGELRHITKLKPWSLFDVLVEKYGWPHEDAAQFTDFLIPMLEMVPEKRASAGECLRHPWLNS
UniProt Q9UPE1: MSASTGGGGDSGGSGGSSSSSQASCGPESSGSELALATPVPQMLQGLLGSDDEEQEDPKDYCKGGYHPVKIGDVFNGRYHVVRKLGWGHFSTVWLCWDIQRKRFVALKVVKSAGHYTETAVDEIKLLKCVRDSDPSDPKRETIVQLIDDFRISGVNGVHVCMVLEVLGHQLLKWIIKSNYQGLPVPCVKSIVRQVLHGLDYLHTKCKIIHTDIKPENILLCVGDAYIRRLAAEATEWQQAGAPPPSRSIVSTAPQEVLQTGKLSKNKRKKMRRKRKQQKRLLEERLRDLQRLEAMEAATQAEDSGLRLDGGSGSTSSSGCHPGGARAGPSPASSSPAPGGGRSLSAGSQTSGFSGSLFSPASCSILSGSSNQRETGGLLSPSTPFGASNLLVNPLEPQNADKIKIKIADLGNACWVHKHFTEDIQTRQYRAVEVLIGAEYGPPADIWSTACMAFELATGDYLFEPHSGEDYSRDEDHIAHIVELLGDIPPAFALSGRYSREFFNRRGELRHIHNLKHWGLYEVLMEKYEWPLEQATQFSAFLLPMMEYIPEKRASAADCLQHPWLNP
UniProt O75494: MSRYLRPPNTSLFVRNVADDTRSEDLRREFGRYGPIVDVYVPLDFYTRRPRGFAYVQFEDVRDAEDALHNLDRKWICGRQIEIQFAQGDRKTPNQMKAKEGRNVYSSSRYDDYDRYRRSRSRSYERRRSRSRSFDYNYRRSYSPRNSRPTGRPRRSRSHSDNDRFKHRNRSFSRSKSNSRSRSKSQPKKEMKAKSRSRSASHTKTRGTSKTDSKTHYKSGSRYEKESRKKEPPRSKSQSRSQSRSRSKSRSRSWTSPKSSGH

Results are given in words; binding and its absence hold for the method and conditions named. Binding seen in cells or lysates may run through a third protein. A yes stands for co-enrichment or nearness to the bait. Other partners may have been found.

This experiment has as its target GFP-SRSF1 wild type (Serine/arginine-rich splicing factor 1) (UniProt Q07955). Description: affinity purification with mass spectrometry.

For “SRPK2 (from UniProt P78362 1-688) (enzyme)”, the binding result is “binds”.

Take “SRPK3 (from UniProt Q9UPE1 1-567) (enzyme)”: the binding entry is recorded as “binds”. SRSF10 (from UniProt O75494 1-262): the binding entry is “binds”.
